# Library screen at single concentrations

Each number is a percent effect as filed. The record does not define 0% and 100%; most values in the screen are far below 50% and negative numbers occur (in some assays of this library far below -100). This is an unselected part of the compounds tested. Two or more numbers in one place are separate tests of the same structure; such repeats can differ widely.

Mtb glucose medium: 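Phenotypic screen: M. tuberculosis growth, glucose 7H9 medium, 3 days; the read-out is not stated. Tested at 50 µM. Direction is inferred from retests: higher values go with more growth inhibition. Size under these conditions: about 69,000 compounds, about 760 of them at 50% or above in at least one test.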
Mtb cholesterol medium: 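Whole-cell growth test on Mycobacterium tuberculosis, read after 4 days in a medium based on cholesterol and the lipid DPPC; the read-out is not stated. Concentration: 50 µM. Direction is inferred from retests: higher values go with more growth inhibition. Size under these conditions: about 69,000 compounds, about 370 of them at 50% or above in at least one test.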

compound,Mtb glucose medium,Mtb cholesterol medium
[H][C@@]12C[C@@H](O)CN1C[C@@H](Cc1ccccc1)N(Cc1ccccc1Cl)C2,15.86%,-5.216% & 16.73%
CN(Cc1n[nH]c(=O)n1Cc1ccco1)S(C)(=O)=O,1.122%,18.25%
CC1CCCN(Cc2coc(-c3cccc(F)c3)n2)C1 (stereo not shown),37.67%,6.911%
Cc1ccc(CNC(=O)Nc2nnc(C(C)C)s2)n1C,18.85%,-11.19%
Cc1[nH]c2c(F)cccc2c1CC(=O)N1CCC(NS(C)(=O)=O)CC1,-2.041% & -10.7%,-1.718%
CC(OCC1CC1)C(=O)N1CCCN(Cc2nccn2C)CC1 (stereo not shown),-40.84%,-22.22%
Cc1cc(CNC(=O)c2cnoc2C)c(C)o1,-0.8001%,1.096%
NC(=O)c1cc(NC(=O)NCCc2cc(F)cc(F)c2)ccc1F,17.03%,4.814%
O=C(O)C(F)(F)F.O=C(O)C(F)(F)F.c1ccc(CN2CCc3ncnc(-c4cccnc4)c3CC2)nc1,0.7354%,-6.247%
O=C(O)C(F)(F)F.[H][C@@]12COC[C@]1(C(=O)NCCc1ccccc1)CN(Cc1cnn(C)c1)C2,9.751%,10.63%
Cc1cc(CN(C)C(=O)c2ccc(Cl)c(S(C)(=O)=O)c2)no1,-10.76%,-12.59%
Cc1nn(-c2ccc(C(=O)O)cc2)c2c1C(c1cccs1)SCC(=O)N2 (stereo not shown),6.438% & 15.2%,-6.086%
O=C(NCCn1cccc1)C(c1cccnc1)N1CCCC1 (stereo not shown),-2.436%,-21.01%
O=C(C1CCCN(C2CCOCC2)C1)N1CCc2ncccc2C1 (stereo not shown),-8.822%,-2.956%
CC1CN(CC(=O)N2CCOCC2)CCN1Cc1nccn1C (stereo not shown),-12.39%,-4.371%
Cc1nn(C)c2sc(C(=O)N3CCCC(n4ccnc4C)C3)cc12 (stereo not shown),20.01% & -8.445%,-7.857%
CC(C)N(C)Cc1nnc2n1CCCN(c1ncccn1)C2.O=C(O)C(F)(F)F,-8.049%,-6.596%
CCn1cc(CNC(=O)CCc2nnc(-c3ccc(C)s3)o2)cn1,-19.76%,-29.07%
CN1CCCC2(CCN(S(=O)(=O)c3ccc(-c4cnco4)s3)C2)C1=O (stereo not shown),6.132%,4.207%
O=C(Cc1ccsc1)N1CCC2(CCCN(CC3CCOCC3)C2)C1 (stereo not shown),-13.59% & -2.042%,-7.321% & -5.493%
Cc1ccsc1CN(C)c1nc2c(cnn2C(C)(C)C)c(=O)[nH]1,14.7%,10.69%
CC(=O)N1CCN(Cc2csc(-c3cnn(C)c3)n2)CC1,-20.88%,0.7317%
Cc1cc(C)n(C2CN(CC(=O)N(C)Cc3cnn(C)c3)C2)n1,-4.137%,-4.499% & 2.619%
Cc1csc(C2(NC(=O)CCc3ccncc3)CCCC2)n1,-24.68%,-8.428%
[H][C@@]12CC[C@H](Oc3ccccc3Cl)[C@]1([H])CN(C(=O)COCCOC)C2,-1.724%,-15.23%
CC(C)(C)OC(=O)NC(C)(C)c1noc(CSc2ccccn2)n1,4.986%,13.09%
CC(c1cccc(-c2ncccc2C#N)c1)N(C)C (stereo not shown),24.24%,1.901%
CN(C)CC(C)(C)CN1CCC(c2ccnc(-c3cccc(O)c3)c2)C1 (stereo not shown),17.79%,0.3768%
COc1ccc(CNCCc2ccn(-c3ccccc3)n2)cc1O,-0.5004% & 37.23%,4.35%
O=C(O)C(F)(F)F.O=C(O)C(F)(F)F.[H][C@@]12CN(Cc3ccc(C)s3)C[C@@]1([H])N(Cc1ccncc1)C(=O)CO2,-2.73%,-13.01%
CCOCCCNC(=O)NCc1c(C)nn(C)c1C,-12.5%,-44.22%
C[S+]([O-])CCNCc1ccc(OCc2cscn2)cc1 (stereo not shown),-0.9179%,-0.7174%
COc1ccc2c(=O)n(CC3CC3)ccc2c1OC,-36.11%,-41.04%
Cc1cnn(C2CN(CC(=O)NCCOc3ccccc3)C2)c1,25.76%,-2.62%
CN(CCOc1ccccc1)C(=O)Nc1cccn(C)c1=O,14.16% & 1.946%,-22.8%
CC(NC(=O)N1CCCC1)c1ccc(S(N)(=O)=O)cc1 (stereo not shown),-13.71%,-6.751%
CS(=O)(=O)NCC1CCCCN1C(=O)c1csc(-c2ccsc2)n1 (stereo not shown),14.34%,-6.192%
CCc1c(C)nc2cc(C3CCN(Cc4ccc(F)cc4)C3)nn2c1O (stereo not shown),32.45%,0.2923%
COc1cc2c(cc1CN1CCn3c(CO)nnc3C1)CCC2.O=C(O)CC(O)(CC(=O)O)C(=O)O,3.877%,1.444%
Cc1nc(C(C)C)sc1C(=O)NCCNc1ncccn1,12.53%,-1.426%
CN(C)c1ccc(CC2COCCN(Cc3nccn3C)C2)nn1 (stereo not shown),15.91%,-4.207%
CCOC(=O)c1coc(N2CCN(Cc3ccc(C)cc3)C(=O)C2)n1,-3.734% & -2.998%,1.223%
COc1ccc(F)cc1C(=O)C1CCCN(Cc2ccc(C)s2)C1 (stereo not shown),12.04% & 10.89%,4.612%
Cn1cc(C(=O)NCc2cn3c(n2)CN(Cc2ccncc2)CC3)cn1,-17.64%,-44.92%
Cc1ccccc1CN(CCN(C)C)C(=O)c1ccc2nccn2c1,-15.93%,-5.994%
Cc1ncc2c(n1)CN(CC(=O)Nc1nnc(C)s1)CC2,8.474%,-6.501%
Cc1ccccc1-n1cc(-c2ccnc(N[C@H](CO)C(C)C)n2)cn1,-8.445%,17.82%
O=C(c1cc(Cl)c[nH]1)N1CCCC(c2cc(C(F)(F)F)[nH]n2)C1 (stereo not shown),36.2%,17.95%
[H][C@]12CCC(=O)N(c3ccccc3)[C@@]1([H])CCN2C(=O)c1ccc(C#N)cc1,-2.498%,-21.28%
CCCN(Cc1ccc(C(=O)NCC2COCCO2)c(=O)[nH]1)C1CC1 (stereo not shown),-49.02%,-74.76%
COCc1ccccc1C(=O)N(C)Cc1ncc(C)c(OC)c1C,-15.77%,2.002%
CC(C)N(C)Cc1noc2c1CN(C(=O)c1cnccn1)CC2,-12.65% & -33.63%,-15.13%
[H][C@@]12CS(=O)(=O)C[C@]1([H])N(C(=O)c1cnc(C)cn1)CCN2C(=O)CC(C)C,1.758%,-1.088%
CCN1CCN(C(=O)c2cn(Cc3ccccc3)c3ncccc23)CC1,22.08%,0.7735%
OCCCN(CCn1cncn1)c1ccccc1,-28.2%,-23.41%
[H][C@@]12CN(C(=O)C3CCOC3)C[C@]1([H])C(=O)N(Cc1cccc(C)c1)C2 (stereo partly shown),-4.604%,-9.359%
CCOc1ccnc(N2CCN(C(=O)c3ccoc3C)CC2)n1,-5.568%,4.332%
Cn1cc(C[C@H]2[C@H](O)CCN2Cc2ccc3c(c2)OCO3)cn1,-11.27%,-8.832% & 9.686%
CC(=O)N1CCN(C(=O)C(C)OCC(F)(F)F)CC1 (stereo not shown),-17.71%,-15.32%
[H][C@@]12CN(CC3CC3)C[C@]1([H])N(Cc1ccccc1OC)C(=O)O2,9.736%,-5.683% & 10.09%
O=C(O)C(F)(F)F.O=C(O)C(F)(F)F.[H][C@@]12CCCO[C@]1([H])[C@H](N(C)Cc1cncnc1)CN(Cc1ccco1)C2,-19.59%,-8.398%
CCOC(=O)C1CCN(C(=O)c2cc(Br)ccc2-n2cnnn2)CC1,-9.308%,-5.37%
O=C(O)C(F)(F)F.[H][C@@]12CN(C)C[C@]1(C(=O)N(C)C)CCC21CCN(S(=O)(=O)CC)CC1,-2.165% & -4.947%,-11.02%
CCCn1ncnc1C(C)NC(=O)C1CCN(C(=O)C2CC2)CC1 (stereo not shown),3.223% & -7.141%,5.961% & 3.619%
CCCC(N)CNS(=O)(=O)Cc1cccc(C#N)c1.Cl (stereo not shown),11.17%,10.66%
Oc1nc(C2CC2)nc2c1nnn2C1CCN(Cc2ccoc2)CC1,6.851%,-2.439% & 10.94%
COCCN1CCCC2(CCN(c3cc(C)c(C#N)c(C)n3)C2)C1=O (stereo not shown),-17.13%,-12.99%
COc1ccc(C(=O)NCCc2nnc3ccccn23)c(OC)c1,-25.96%,-23.85%
CCS(=O)(=O)N1CCCC2(COCCN(c3ccccn3)C2)C1.O=C(O)C(F)(F)F (stereo not shown),17.8%,-10.37%
Cc1cc(C)c2nc(CN3CC[C@@H](O)C3)cc(O)c2c1,-5.585%,26.41%
Cn1cc(CN2CCCC23CCN(C(=O)c2cccn2C)CC3)cn1.O=C(O)C(F)(F)F,-13.51%,-21.96%

For reference, 4 entries once more:

CC(C)N(C)Cc1noc2c1CN(C(=O)c1cnccn1)CC2 read Mtb glucose medium: -12.65% & -33.63%; Mtb cholesterol medium: -15.13%.
CN1CCCC2(CCN(S(=O)(=O)c3ccc(-c4cnco4)s3)C2)C1=O (stereo not shown) read Mtb glucose medium: 6.132%; Mtb cholesterol medium: 4.207%.
Cc1nn(-c2ccc(C(=O)O)cc2)c2c1C(c1cccs1)SCC(=O)N2 (stereo not shown) read Mtb glucose medium: 6.438% & 15.2%; Mtb cholesterol medium: -6.086%.
Cc1cc(C)n(C2CN(CC(=O)N(C)Cc3cnn(C)c3)C2)n1 read Mtb glucose medium: -4.137%; Mtb cholesterol medium: -4.499% & 2.619%.

Measurements from “University of Dundee, Small-Polar-MMV Screening Library” (2021), ChEMBL document CHEMBL3988442.